Data: patent EP4688000A1 (dated 2026)
Results are given in words; binding and its absence hold for the method and conditions named. Some entries that bind do so weakly or less than the wild type.

Amino acid sequences for entries named in this document (tags omitted). A change or cut given only in a name is not applied to a line headed by its entry.
UniProt P16144: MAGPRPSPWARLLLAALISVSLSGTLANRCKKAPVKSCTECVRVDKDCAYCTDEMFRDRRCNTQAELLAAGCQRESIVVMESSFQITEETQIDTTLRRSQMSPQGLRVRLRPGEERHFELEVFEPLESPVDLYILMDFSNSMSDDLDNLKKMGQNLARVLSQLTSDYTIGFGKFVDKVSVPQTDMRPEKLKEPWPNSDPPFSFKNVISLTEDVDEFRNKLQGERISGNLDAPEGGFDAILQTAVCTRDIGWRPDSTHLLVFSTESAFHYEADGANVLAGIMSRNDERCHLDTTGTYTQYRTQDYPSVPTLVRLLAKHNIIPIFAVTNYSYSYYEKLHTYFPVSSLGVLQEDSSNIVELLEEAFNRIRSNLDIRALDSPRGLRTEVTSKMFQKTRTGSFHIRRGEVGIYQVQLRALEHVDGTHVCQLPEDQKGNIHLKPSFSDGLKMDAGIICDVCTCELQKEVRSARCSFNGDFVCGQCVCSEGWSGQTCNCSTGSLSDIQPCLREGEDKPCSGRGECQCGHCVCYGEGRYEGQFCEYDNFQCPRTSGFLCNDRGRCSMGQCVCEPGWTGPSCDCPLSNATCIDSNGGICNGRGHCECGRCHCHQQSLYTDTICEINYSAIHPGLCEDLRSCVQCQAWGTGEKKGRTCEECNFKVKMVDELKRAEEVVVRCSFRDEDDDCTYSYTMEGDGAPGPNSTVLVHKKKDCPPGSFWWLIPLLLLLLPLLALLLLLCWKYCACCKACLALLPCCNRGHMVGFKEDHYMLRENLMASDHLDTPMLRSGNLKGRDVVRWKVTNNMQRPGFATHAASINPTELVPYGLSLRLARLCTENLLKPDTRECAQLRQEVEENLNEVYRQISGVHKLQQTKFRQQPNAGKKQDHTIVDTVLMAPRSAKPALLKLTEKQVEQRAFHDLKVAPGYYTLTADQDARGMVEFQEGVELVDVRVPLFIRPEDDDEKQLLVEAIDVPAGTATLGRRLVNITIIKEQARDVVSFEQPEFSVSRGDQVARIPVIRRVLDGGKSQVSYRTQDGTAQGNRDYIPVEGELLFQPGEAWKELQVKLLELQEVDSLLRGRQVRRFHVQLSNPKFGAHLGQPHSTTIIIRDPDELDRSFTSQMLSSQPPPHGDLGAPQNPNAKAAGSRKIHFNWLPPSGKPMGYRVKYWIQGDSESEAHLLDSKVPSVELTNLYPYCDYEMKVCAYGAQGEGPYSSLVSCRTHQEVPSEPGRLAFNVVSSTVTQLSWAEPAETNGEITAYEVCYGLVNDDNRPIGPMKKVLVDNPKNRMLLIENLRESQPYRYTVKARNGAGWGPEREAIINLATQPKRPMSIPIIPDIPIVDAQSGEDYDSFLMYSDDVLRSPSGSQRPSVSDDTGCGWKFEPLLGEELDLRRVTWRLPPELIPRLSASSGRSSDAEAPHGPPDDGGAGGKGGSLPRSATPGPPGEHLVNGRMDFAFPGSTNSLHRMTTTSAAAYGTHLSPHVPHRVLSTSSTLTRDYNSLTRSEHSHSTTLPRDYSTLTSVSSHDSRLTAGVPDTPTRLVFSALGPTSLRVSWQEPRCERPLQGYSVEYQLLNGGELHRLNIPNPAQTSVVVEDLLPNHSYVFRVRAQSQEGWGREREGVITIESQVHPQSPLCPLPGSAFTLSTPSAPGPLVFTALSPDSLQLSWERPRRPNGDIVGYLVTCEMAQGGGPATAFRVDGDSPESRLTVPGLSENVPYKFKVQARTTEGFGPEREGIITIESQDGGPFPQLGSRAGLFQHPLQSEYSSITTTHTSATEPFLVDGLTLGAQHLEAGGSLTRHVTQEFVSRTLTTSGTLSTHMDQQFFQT
UniProt P23229: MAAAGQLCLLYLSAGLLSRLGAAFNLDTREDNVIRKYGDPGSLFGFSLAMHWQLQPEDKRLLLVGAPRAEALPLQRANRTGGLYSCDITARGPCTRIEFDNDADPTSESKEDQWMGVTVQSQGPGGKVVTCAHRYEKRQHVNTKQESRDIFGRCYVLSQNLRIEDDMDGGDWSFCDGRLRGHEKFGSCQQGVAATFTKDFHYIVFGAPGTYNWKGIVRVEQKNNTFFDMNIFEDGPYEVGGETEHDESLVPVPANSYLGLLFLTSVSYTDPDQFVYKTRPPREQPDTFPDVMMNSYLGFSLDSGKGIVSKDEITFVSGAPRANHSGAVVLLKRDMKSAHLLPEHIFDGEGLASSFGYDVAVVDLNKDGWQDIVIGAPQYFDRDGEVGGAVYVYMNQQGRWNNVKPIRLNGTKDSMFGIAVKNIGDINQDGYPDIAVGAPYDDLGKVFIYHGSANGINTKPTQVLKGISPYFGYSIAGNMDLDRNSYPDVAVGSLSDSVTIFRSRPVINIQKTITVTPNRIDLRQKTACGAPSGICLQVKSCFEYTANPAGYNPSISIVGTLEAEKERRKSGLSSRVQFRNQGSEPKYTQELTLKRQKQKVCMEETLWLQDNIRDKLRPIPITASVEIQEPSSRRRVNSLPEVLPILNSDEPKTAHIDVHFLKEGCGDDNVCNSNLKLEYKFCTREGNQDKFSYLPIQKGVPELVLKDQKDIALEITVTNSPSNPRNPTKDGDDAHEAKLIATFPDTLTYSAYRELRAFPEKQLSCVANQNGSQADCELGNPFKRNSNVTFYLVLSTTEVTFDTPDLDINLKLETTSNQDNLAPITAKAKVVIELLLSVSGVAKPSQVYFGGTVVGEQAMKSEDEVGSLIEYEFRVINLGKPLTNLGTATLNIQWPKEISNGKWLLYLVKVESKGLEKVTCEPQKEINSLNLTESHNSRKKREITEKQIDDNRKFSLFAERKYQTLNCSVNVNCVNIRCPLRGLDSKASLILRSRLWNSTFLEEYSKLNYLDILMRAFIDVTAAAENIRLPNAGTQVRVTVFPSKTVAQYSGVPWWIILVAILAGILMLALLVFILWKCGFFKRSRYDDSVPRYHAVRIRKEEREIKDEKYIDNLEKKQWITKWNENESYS

Tests used:
[1] = target: T1, human ITGB4 (integrin α6β4) on cells: HCT116, H292, SW620 and other tumor cells, CHO-S-human ITGA6B4-#5 (human) (UniProt P16144+P23229); test: flow cytometry on cells (Fig. 4)
[2] = target: recombinant human integrin alpha 6 beta 4 protein (ITGα6β4, Sino #CT069-H2508H) (human) (UniProt P23229+P16144); test: Octet BLI (antibody on AHC sensor) and ELISA on coated recombinant human ITGα6β4
[3] = target: T1, human ITGB4 (integrin α6β4) on cells: HCT116, H292, SW620 and other tumor cells, CHO-S-human ITGA6B4-#5 (human); test: flow cytometry on HCT116, H292 and CHO-S-human ITGA6B4-#5 cells

Measured: binding

B1: anti-ITGB4 antibody 008 (parental clone) (antibody, V domains shown)
VH: QVQLKQSGPSLVQPSQSLSITCTVSGFSLTSYGVHWFRQSPGKGLEWLGVIWRGGNTDYNAAFMSRLSITKDNSKSQVFFKMNSLQPDDTAIYYCVKNYRFGGSAYWGQGTLVTVSA
VL: DIQMTQTTSSLSASLGDRVTISCRASQDISNHLNWYQQKPDGTVKLLIYYTSTLHSGVPSRFSGSGSGTDYSLTISNLEPEDIATYYCQQDLNLPWTFGGGTKLEIK
notes: In the assays it was captured on anti-human IgG Fc sensors and detected with anti-human IgG, so the tested form carries a human Fc; also called 008 clone
binds: [1] | [2] | [3]
